Data from US20240343681A1, “MOLECULES HAVING PESTICIDAL UTILITY AND INTERMEDIATES AND PROCESSES RELATED THERETO” (priority 2021, published 2024).
For at least one compound, name, drawing or mass did not settle the structure. Some compounds share one wording; it may come from a single statement.

Assays:
[1] = test system: Beet Armyworm (Spodoptera exigua, LAPHEG) second instar larva; assay: Bioassay on beet armyworm (BAW), 128-well diet tray assay; format: in vivo; settings: 50 μg/cm^2 on artificial diet, 25° C., five days
Experimental: Example A: Bioassays on Beet Armyworm (Spodoptera exigua, LAPHEG) (“BAW”) and Cabbage Looper (Trichoplusia ni, TRIPNI) (“CL”)
Bioassays on BAW were conducted using a 128-well diet tray assay. One second instar BAW larva was placed in each well (8 wells total) of the diet tray that had been previously filled with 1 mL of artificial diet to which 50 μg/cm^2 of the test molecule (dissolved in 50 μL of 90:10 acetone-water mixture) had been applied (to each of eight wells) and then allowed to dry. Trays were covered with a clear self-adhesive cover, vented to allow gas exchange, and held at 25° C., 14:10 light-dark for five days. Percent mortality was recorded for the larvae in each well; activity in the eight wells was then averaged.

[2] = test system: Yellow Fever Mosquito (Aedes aegypti, AEDSAE) larvae; assay: Bioassay on yellow fever mosquito (YFM), 96-well plate larval assay; format: in vivo; settings: 4000 ppm (master plate solution), about 1 day-old larvae, 3 days
Experimental: Example B: Bioassays on Yellow Fever Mosquito (Aedes aegypti, AEDSAE) (“YFM”)
Master plates containing 400 μg of a molecule dissolved in 100 μL of dimethyl sulfoxide (DMSO) (equivalent to a 4000 ppm solution) are used. A master plate of assembled molecules contains 15 μL per well. To this plate, 135 μL of a 90:10 water/acetone mixture is added to each well. A robot (Biomek® NXP Laboratory Automation Workstation) is programmed to dispense 15 μL aspirations from the master plate into an empty 96-well shallow plate (“daughter” plate). There are 6 reps (“daughter” plates) created per master. The created “daughter” plates are then immediately infested with YFM larvae.
The day before plates are to be treated, mosquito eggs are placed in Millipore water containing liver powder to begin hatching (4 g into 400 mL). After the “daughter” plates are created using the robot, they are infested with 220 μL of the liver powder/larval mosquito mixture (about 1 day-old larvae). After plates are infested with mosquito larvae, a non-evaporative lid is used to cover the plate to reduce drying. Plates are held at room temperature for 3 days prior to grading. After 3 days, each well is observed and scored based on mortality.

| SMILES | activity against BAW (percent mortality, averaged over eight wells) [1] | activity against YFM (scored based on mortality) [2] |
| --- | --- | --- |
| CC(=O)Nc1cc(NC(=O)[C@H]2[C@H](c3cc(Cl)cc(Cl)c3)C2(Cl)Cl)ccc1Cl (racemic) [F1, trans-rac-N-(3-Acetamido-4-chlorophenyl)-2,2-dichloro-3-(3,5-dichlorophenyl)cyclopropane-1-carboxamide] | exhibited activity | exhibited activity |
| O=C(Nc1cc(NC(=O)[C@H]2[C@H](c3cc(Cl)cc(Cl)c3)C2(Cl)Cl)ccc1Cl)c1ccc(F)cc1 (racemic) [F2, trans-rac-N-(2-Chloro-5-(2,2-dichloro-3-(3,5-dichlorophenyl)cyclopropane-1-carboxamido)phenyl)-4-fluorobenzamide] | exhibited activity | exhibited activity |
| O=C(Nc1cc(NC(=O)[C@H]2[C@H](c3cc(Cl)cc(Cl)c3)C2(Cl)Cl)ccc1Cl)C1CC1 (racemic) [F3, trans-rac-2,2-Dichloro-N-(4-chloro-3-(cyclopropanecarboxamido)phenyl)-3-(3,5-dichlorophenyl)cyclopropane-1-carboxamide] | exhibited activity | exhibited activity |
| Cc1cc(C#N)ccc1C(=O)Nc1cc(NC(=O)[C@H]2[C@H](c3cc(C(F)(F)F)cc(C(F)(F)F)c3)C2(Cl)Cl)ccc1Cl [F96, N-(5-((1R,3R)-3-(3,5-bis(trifluoromethyl)phenyl)-2,2-dichlorocyclopropane-1-carboxamido)-2-chlorophenyl)-4-cyano-2-methylbenzamide] | exhibited activity |  |
| CC(C)(C)OC(=O)Nc1c(F)ccc(C(=O)Nc2cc(NC(=O)[C@H]3[C@H](c4ccc(F)c(C(F)(F)F)c4)C3(Cl)Cl)ccc2Cl)c1F [F101, tert-Butyl (3-((2-chloro-5-((1R,3R)-2,2-dichloro-3-(4-fluoro-3-(trifluoromethyl)phenyl)cyclopropane-1-carboxamido)phenyl)carbamoyl)-2,6-difluorophenyl)carbamate] | exhibited activity |  |
